Record: PubChem BioAssay AID652259 (Drosophila RNAi Screening Center, 2013)

Test: 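Identify new Wingless signalling regulators in fly cells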 (primary screen)
Cell system: Drosophila clone 8 imaginal disc epithelial cells
Reagents: long dsRNA against Drosophila genes
Conditions: pathway stimulated by co-transfected Wingless expression plasmid
Measured: 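Firefly luciferase from a tcf-site Wingless reporter, measured alongside co-transfected Renilla luciferase that tracks transfection; pathway stimulated by a Wingless plasmid; the firefly-to-Renilla ratio is not deposited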
Direction: firefly reporter light: higher = more Wg reporter light, before normalisation; Renilla control light: higher = more transfected or surviving cells
Rule for the call: 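a knock-down is a candidate when at least two out of four statistical tests show it departing from its plate mean; one test alone signals a weak candidate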
Calls: active = candidate regulator (raises or lowers reporter); inactive = not a candidate
The deposit covers about 22,000 reagents; below is a random part of those that have a named target and a result. Of all reagents, 233 (1.1%) got an active call. 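Light values are raw, unnormalised plate reads; the ratio scores behind the reporter calls were not deposited.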 Names joined by + are all predicted targets of the reagent. The record does not give: the amount of reagent, the time to read-out, the dose of the treatment.

CG6664 [DRSC10690] → firefly reporter light, replicate 1: 3490; Renilla control light, replicate 1: 1840; Call: inactive
Seipin [DRSC18654] → firefly reporter light, replicate 1: 12640; Renilla control light, replicate 1: 12629; Call: inactive
fd3F + CR42499 [DRSC18160] → firefly reporter light, replicate 1: 19585; Renilla control light, replicate 1: 11792; Call: inactive
fd3F + CR42499 [DRSC18161] → firefly reporter light, replicate 1: 20208; Renilla control light, replicate 1: 10449; Call: inactive
CG14069 [DRSC02372] → firefly reporter light, replicate 1: 2393; firefly reporter light, replicate 2: 8694; Renilla control light, replicate 1: 1181; Renilla control light, replicate 2: 4375; Call: inactive
CG32221 [DRSC09638] → firefly reporter light, replicate 1: 2745; Renilla control light, replicate 1: 1260; Call: inactive
CG9519 [DRSC20195] → firefly reporter light, replicate 1: 1943; firefly reporter light, replicate 2: 5593; Renilla control light, replicate 1: 1035; Renilla control light, replicate 2: 2592; Call: inactive
CG18635 [DRSC06780] → firefly reporter light, replicate 1: 4005; Renilla control light, replicate 1: 1079; Call: inactive

The list goes on; the last 2 above are carried over.
CG9519 [DRSC20195] → firefly reporter light, replicate 1: 1943; firefly reporter light, replicate 2: 5593; Renilla control light, replicate 1: 1035; Renilla control light, replicate 2: 2592; Call: inactive
CG18635 [DRSC06780] → firefly reporter light, replicate 1: 4005; Renilla control light, replicate 1: 1079; Call: inactive
CG4301 [DRSC19886] → firefly reporter light, replicate 1: 12052; Renilla control light, replicate 1: 5771; Call: inactive
Vtld + CG42529 [DRSC10102] → firefly reporter light, replicate 1: 15990; Renilla control light, replicate 1: 5140; Call: inactive
CG3036 [DRSC00260] → firefly reporter light, replicate 1: 30727; firefly reporter light, replicate 2: 8.08e5; Renilla control light, replicate 1: 12841; Renilla control light, replicate 2: 4.38e5; Call: inactive
CG3036 [DRSC00562] → firefly reporter light, replicate 1: 18503; Renilla control light, replicate 1: 4989; Call: inactive
CG3156 [DRSC18503] → firefly reporter light, replicate 1: 2360; firefly reporter light, replicate 2: 8617; Renilla control light, replicate 1: 1459; Renilla control light, replicate 2: 2838; Call: inactive
kcc [DRSC04316] → firefly reporter light, replicate 1: 11891; Renilla control light, replicate 1: 3783; Call: inactive
kcc [DRSC04516] → firefly reporter light, replicate 1: 2633; firefly reporter light, replicate 2: 5547; Renilla control light, replicate 1: 866; Renilla control light, replicate 2: 2262; Call: inactive
Spp [DRSC00328] → firefly reporter light, replicate 1: 7465; Renilla control light, replicate 1: 3722; Call: inactive
CG8907 [DRSC16453] → firefly reporter light, replicate 1: 2067; firefly reporter light, replicate 2: 7936; Renilla control light, replicate 1: 1483; Renilla control light, replicate 2: 2064; Call: inactive
